# Data reported in PubChem BioAssay AID1347075 (National Center for Advancing Translational Sciences (NCATS), 2019).
# The whole screen tested about 400,000 compounds, of which about 5,500 (1.4%) were called active. Inconclusive results, whose numbers are uncertain, are shown with a selection of clear calls. Calls come from the whole dose curve; as a rule, active = well fitted cell-killing curve with a large enough effect; inconclusive = small, poorly fitted or top-dose-only effect, or effect the other way; inactive = flat fitted curve, though single readings scatter. Potencies beside an inconclusive call are fits to weak or partial responses and may not hold up.
# Experiment: qHTS assay for MDR1-selective chemotherapeutics: Primary screen using the parental adenocarcinoma cell KB-3-1; note: nearly all actives have a fitted effect of over 60% in size
# Conditions: KB-3-1 viability, CellTiter-Glo ATP luminescence, 72 h; activity change, negative = cytotoxic: at 46.1 µM (top of the series)
# How it was run: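 Here the drug-naive KB-3-1 line serves as comparator for MDR sub-line selectivity; cells received compound titrations, 72 h at 37 °C, then CellTiter-Glo readout.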
# % is set by controls: 0 for no effect and ±100 for the full control effect; potency is the fitted concentration of half-maximal effect.
Compound,Potency,"activity change, negative = cytotoxic"
O=C(Nc1ccc(F)cc1)c1ccc(-n2cncn2)c([N+](=O)[O-])c1,"inconclusive: 29.1 µM [cytotoxic, single point]",
Cn1nc(C(C)(C)C)cc1C(=O)N1CCCCC1c1cc(C(=O)Nc2ccccc2Cl)no1 (stereo not given),"inconclusive: 29.1 µM [cytotoxic, single point]",
CC(C)NCC(O)COc1cccc2ccccc12 (stereo not given),,inactive: 0%
CCOc1ccc(-c2nc(=S)[nH][nH]2)cc1,,inactive: 0.998%
Cc1ccc(-n2nc3c(=O)n(CCCC(=O)NCc4ccc(C)o4)nc(C)c3c2C)cc1,"inconclusive: 3.66 µM [cytotoxic, partial curve, poor fit]",
O=C(NC(Cc1ccccc1)C(=O)N1CCN(c2ccccc2O)CC1)c1ccccc1 (stereo not given),,inactive: -3.59%
CCOC(=O)c1sc(NC(=O)c2ccc(OC(C)=O)cc2)nc1C,"inconclusive: 16.4 µM [cytotoxic, partial curve]",
CCn1c(C)cc(C(=O)COC(=O)c2ccccc2[N+](=O)[O-])c1C,,inactive: 5.69%
O=C(CN1CCN(C(=O)C2CCCO2)CC1)Nc1cc(C(F)(F)F)ccc1Cl (stereo not given),,inactive: 6.25%
CCCn1c(SCC(=O)Nc2ccccc2N2CCCCC2)nc2c1c(=O)n(C)c(=O)n2C,,inactive: -23.1%
COc1ccccc1NC(=S)N1CCN(Cc2ccccc2)CC1,"inconclusive: 20.6 µM [cytotoxic, single point]",
Cc1ccc(Cn2ncc3c(N4CCN(Cc5ccc(Cl)cc5)CC4)ncnc32)cc1,"inconclusive: 2.91 µM [cytotoxic, full curve, poor fit]",
COc1ccnc(Oc2ccccc2)c1C(=O)N/C=N/OCc1ccc(F)cc1Cl,"inconclusive: 20.6 µM [cytotoxic, partial curve, poor fit]",
CCN(CC)C(=O)N1c2ccccc2CC(N(CC)CC)c2ccccc21 (stereo not given),"inconclusive: 23.1 µM [cytotoxic, single point]",
O=C(c1cc(-c2cccs2)nc2ccccc12)N1CCN(c2ccccc2)CC1,"inconclusive: 20.6 µM [cytotoxic, single point]",
O=c1c2c3c(sc2nc2n1CCCCC2)CCCC3,,inactive: 9.09%
Cc1ccccc1C(=O)Nc1ccc2nc(SCC(=O)N3CCc4ccccc43)sc2c1,,inactive: 0.613%
Cc1cccc(NC(=O)c2ccc(NC(C)c3ccccc3)c([N+](=O)[O-])c2)n1 (stereo not given),"inconclusive: 29.1 µM [cytotoxic, single point]",
COc1ccc2cc([C@@H](C)C(=O)O)ccc2c1,"inconclusive: 0.517 µM [cytotoxic, full curve, poor fit]",
Nc1c(C(=O)Nc2ccc(S(=O)(=O)N3CCCC3)cc2)sc2nc3ccc(OC(F)(F)F)cc3cc12,active: 14.6 µM,

# Sorted by count of non-hydrogen atoms (ascending): some entries from above.
Compound,Potency,"activity change, negative = cytotoxic"
COc1ccc2cc([C@@H](C)C(=O)O)ccc2c1,"inconclusive: 0.517 µM [cytotoxic, full curve, poor fit]",
O=c1c2c3c(sc2nc2n1CCCCC2)CCCC3,,inactive: 9.09%
Cn1nc(C(C)(C)C)cc1C(=O)N1CCCCC1c1cc(C(=O)Nc2ccccc2Cl)no1 (stereo not given),"inconclusive: 29.1 µM [cytotoxic, single point]",
